Assay results from the supplement of paper PMC10849652.
Some of the results follow.

By UniProt entry, the sequences of proteins in these tests, tags left out. Where a name states a change or a piece, a line headed by the entry shows the natural chain unless it says otherwise.
UniProt Q9H347: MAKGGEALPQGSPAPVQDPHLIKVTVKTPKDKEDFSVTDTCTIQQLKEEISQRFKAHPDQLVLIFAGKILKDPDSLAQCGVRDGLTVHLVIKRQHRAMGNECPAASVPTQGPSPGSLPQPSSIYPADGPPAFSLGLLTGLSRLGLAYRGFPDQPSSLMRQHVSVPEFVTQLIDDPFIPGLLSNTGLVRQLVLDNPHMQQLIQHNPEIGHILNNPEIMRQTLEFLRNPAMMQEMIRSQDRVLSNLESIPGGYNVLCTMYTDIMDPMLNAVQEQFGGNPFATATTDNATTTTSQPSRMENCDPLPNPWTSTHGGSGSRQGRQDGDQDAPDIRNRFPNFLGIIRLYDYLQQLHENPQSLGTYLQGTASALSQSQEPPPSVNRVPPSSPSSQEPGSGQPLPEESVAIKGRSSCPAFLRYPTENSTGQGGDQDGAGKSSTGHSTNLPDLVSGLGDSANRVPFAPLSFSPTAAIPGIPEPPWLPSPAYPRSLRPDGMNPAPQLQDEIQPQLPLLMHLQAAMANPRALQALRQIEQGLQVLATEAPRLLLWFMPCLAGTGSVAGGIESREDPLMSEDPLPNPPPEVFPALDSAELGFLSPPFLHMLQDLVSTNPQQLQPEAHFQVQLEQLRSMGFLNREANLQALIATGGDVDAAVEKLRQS
UniProt Q6NVU6: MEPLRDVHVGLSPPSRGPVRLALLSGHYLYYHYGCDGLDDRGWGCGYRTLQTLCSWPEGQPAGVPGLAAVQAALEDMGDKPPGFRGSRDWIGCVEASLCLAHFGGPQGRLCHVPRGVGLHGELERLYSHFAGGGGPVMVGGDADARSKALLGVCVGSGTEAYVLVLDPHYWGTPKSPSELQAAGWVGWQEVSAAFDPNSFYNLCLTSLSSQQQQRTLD
UniProt Q9BQ65: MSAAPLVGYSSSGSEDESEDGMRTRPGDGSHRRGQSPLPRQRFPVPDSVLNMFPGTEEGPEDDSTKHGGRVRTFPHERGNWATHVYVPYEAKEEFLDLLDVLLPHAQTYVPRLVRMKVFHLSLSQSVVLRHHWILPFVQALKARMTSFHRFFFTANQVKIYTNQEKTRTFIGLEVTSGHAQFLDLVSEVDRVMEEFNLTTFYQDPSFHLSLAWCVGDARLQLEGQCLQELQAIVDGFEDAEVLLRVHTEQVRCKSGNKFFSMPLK
UniProt O75691: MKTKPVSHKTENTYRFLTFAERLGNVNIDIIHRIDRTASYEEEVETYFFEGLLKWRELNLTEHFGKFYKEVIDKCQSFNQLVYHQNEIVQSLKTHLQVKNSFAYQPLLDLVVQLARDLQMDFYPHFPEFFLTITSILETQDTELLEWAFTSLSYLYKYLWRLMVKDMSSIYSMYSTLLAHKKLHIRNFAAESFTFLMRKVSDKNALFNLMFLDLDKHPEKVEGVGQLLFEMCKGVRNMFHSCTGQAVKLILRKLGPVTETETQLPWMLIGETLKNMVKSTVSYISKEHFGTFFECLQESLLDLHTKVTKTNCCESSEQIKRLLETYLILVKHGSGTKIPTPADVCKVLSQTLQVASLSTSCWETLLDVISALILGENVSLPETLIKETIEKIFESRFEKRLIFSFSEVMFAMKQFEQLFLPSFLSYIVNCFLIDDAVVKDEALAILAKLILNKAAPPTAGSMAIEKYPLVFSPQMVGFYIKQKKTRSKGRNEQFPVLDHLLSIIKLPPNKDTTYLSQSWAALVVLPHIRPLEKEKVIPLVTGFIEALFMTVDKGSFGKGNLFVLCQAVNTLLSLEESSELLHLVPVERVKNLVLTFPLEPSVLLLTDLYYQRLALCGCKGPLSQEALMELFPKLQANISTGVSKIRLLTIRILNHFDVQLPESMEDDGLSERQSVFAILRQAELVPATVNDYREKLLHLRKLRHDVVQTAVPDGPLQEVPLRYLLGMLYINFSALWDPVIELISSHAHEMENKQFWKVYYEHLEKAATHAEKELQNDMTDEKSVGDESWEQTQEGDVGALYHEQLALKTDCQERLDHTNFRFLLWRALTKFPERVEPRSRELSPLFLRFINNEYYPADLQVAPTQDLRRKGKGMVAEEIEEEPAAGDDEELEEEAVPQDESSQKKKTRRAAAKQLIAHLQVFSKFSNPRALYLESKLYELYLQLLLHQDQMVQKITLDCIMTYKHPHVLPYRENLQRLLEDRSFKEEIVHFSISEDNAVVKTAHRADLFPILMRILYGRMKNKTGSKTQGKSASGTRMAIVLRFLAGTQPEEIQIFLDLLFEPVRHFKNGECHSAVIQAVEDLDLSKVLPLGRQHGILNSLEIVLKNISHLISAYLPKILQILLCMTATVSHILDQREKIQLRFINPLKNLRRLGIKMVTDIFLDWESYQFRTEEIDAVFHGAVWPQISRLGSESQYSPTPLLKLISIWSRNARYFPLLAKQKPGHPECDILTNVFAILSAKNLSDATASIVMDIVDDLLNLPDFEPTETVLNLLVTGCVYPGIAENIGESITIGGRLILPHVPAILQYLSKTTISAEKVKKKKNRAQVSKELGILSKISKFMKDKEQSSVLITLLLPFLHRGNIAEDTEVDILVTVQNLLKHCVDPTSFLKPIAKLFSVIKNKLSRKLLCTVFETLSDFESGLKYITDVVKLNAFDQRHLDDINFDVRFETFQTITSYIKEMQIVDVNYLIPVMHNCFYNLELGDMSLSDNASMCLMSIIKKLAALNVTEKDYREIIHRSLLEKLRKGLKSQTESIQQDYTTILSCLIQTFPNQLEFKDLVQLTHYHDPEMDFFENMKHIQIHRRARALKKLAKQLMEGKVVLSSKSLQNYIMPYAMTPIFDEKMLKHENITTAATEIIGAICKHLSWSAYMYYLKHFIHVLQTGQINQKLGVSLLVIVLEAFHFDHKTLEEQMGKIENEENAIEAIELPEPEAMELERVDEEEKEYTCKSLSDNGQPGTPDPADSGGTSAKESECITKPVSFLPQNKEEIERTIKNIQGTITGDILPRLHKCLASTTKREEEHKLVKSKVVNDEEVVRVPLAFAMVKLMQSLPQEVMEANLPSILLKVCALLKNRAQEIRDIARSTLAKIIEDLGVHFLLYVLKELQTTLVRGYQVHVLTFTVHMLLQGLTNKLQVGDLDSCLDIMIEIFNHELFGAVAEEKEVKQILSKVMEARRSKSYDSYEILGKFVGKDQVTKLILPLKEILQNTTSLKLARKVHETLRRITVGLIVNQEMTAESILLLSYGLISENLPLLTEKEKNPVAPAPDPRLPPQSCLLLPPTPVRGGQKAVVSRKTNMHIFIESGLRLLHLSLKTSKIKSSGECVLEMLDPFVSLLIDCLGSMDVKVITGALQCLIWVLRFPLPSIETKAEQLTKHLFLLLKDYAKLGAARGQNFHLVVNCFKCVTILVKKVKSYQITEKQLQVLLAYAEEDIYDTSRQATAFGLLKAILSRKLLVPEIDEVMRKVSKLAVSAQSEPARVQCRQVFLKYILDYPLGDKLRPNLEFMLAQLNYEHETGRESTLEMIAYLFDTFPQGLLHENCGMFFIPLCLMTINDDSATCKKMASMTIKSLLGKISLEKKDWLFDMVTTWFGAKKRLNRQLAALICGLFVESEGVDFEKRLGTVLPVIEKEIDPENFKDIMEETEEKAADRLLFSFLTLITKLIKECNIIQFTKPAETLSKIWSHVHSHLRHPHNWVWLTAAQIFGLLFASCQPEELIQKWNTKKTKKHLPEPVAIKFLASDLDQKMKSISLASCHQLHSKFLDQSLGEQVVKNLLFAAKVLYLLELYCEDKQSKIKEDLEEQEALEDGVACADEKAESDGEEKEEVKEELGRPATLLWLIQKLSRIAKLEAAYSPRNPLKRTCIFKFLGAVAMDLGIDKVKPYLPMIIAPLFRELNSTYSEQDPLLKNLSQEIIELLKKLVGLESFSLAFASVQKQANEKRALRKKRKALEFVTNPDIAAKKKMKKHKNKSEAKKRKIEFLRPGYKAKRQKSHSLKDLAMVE
UniProt P22415: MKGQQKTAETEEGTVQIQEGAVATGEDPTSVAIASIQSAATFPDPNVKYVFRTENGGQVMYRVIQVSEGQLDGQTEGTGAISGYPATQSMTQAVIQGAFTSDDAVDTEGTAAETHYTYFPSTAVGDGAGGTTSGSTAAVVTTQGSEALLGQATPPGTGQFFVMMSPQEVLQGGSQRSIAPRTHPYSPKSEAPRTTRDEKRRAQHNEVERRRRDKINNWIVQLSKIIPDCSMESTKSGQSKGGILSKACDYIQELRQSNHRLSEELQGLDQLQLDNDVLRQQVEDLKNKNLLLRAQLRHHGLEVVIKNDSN
UniProt Q13107: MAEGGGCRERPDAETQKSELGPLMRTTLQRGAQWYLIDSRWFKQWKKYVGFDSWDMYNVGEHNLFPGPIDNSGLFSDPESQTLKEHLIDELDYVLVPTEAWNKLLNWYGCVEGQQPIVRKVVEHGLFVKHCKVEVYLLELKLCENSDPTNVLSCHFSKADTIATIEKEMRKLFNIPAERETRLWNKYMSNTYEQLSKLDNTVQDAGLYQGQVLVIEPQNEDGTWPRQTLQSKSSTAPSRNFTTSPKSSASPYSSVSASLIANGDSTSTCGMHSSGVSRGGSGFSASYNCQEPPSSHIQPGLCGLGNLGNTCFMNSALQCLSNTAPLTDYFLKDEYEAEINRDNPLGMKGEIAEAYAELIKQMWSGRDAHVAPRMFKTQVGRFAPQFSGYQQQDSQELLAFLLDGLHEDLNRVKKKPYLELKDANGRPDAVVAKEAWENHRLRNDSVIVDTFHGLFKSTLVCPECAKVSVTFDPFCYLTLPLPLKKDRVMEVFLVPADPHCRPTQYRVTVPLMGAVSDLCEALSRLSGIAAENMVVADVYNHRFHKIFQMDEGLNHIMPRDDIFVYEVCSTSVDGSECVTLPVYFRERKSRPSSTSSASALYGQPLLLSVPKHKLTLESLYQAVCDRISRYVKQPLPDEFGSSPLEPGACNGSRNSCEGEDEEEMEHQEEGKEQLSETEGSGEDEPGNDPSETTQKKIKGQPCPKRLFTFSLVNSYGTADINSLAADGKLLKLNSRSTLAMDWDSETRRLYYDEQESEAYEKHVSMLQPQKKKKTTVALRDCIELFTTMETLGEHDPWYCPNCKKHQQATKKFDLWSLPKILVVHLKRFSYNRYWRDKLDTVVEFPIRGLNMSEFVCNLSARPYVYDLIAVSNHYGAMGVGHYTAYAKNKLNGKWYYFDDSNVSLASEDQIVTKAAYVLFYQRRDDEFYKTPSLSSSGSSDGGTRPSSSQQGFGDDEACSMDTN
UniProt Q96JH7: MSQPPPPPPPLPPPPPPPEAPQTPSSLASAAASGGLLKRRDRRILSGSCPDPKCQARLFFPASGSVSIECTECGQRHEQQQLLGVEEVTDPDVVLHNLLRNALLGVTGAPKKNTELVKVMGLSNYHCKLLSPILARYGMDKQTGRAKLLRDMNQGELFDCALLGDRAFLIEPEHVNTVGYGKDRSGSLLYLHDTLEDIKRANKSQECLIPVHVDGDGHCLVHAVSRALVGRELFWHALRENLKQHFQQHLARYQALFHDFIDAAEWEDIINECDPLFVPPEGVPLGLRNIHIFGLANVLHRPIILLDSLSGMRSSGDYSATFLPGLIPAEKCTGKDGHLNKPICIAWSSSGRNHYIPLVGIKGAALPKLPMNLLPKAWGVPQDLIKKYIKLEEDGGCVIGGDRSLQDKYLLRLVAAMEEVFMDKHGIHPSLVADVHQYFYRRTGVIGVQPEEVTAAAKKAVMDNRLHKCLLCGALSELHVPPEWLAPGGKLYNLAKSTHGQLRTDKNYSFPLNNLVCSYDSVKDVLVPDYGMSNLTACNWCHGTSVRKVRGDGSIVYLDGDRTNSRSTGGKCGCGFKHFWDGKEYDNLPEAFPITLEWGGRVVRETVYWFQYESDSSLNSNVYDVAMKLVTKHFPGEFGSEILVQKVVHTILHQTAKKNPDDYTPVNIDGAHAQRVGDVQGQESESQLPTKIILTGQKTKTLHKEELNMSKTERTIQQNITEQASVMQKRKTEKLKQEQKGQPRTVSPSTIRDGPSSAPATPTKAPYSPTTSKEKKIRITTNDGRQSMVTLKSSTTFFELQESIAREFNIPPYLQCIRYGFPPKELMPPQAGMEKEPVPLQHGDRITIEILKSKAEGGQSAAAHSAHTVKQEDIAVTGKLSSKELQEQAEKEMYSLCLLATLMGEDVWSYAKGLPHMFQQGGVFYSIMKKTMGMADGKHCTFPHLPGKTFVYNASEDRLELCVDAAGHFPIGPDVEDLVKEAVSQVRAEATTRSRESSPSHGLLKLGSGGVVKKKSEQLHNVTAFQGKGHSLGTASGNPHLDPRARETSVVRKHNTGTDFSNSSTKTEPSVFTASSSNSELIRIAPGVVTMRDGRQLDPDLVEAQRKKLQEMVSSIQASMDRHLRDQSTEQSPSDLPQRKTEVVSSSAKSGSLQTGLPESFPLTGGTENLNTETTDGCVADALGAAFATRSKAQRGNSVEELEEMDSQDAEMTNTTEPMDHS
UniProt C9J7I0: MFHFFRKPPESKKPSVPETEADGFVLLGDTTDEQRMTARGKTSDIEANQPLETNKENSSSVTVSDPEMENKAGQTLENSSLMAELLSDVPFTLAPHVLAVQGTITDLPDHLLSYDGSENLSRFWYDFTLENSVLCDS

How the values were obtained:
Assay in all cases: log2 fold change, soluble protein after heating vs DMSO (PISA); higher = thermal stabilisation; K562 cells, 10 uM, 30 min; active = over 0.2 and 3.5 SD of the protein, either way, in both replicates (recomputed)
[1] = compound: CN1CCN(c2nc(C3=C(c4c[nH]c5ccccc45)C(=O)NC3=O)c3ccccc3n2)CC1 [sotrastaurin]
Summary of the method: (§1)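 Aliquots of K562 cells (2×10^6 cells/mL) treated with 10 μM compound for 30 min were heated for 3 min over 48°C-58°C. After pooling and extraction in PBS with 0.5% NP-40 at 4°C, soluble protein from a 21,000xg, 90 min spin was quantified by TMTpro 16plex LC-MS/MS with channel sums equalised. Thermal stability is expressed against control samples, from duplicates, as a log2 fold change.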

[2] = compound: CN1CCN(CCOc2cc(OC3CCOCC3)c3c(Nc4c(Cl)ccc5c4OCO5)ncnc3c2)CC1 [saracatinib]
Summary of the method: as §1

[3] = compound: CN1CC[C@H](c2c(O)cc(O)c3c(=O)cc(-c4ccccc4Cl)oc23)[C@H](O)C1 [alvocidib]
Summary of the method: as §1

[4] = compound: CN1CCc2c(c3ccccc3n2Cc2ccc(C(=O)NO)cc2)C1 [Tubastatin A]
Summary of the method: as §1

[5] = compound: CNC(=O)C1=CC=CC=C1NC2=NC(=NC=C2Cl)NC3=C(C=C(C=C3)N4CCOCC4)OC
Summary of the method: as §1

[6] = compound: CNC(=O)c1ccc(Nc2ncc(C(F)(F)F)c(NCc3nccnc3N(C)S(C)(=O)=O)n2)cc1 [defactinib]
Summary of the method: as §1

[7] = compound: CNCc1ccc(-c2[nH]c3cc(F)cc4c3c2CCNC4=O)cc1 [rucaparib]
Summary of the method: as §1

[8] = compound: CNc1nc(-c2ccc3c(N)n[nH]c3c2)cc(N2C[C@@H](C(=O)NC3CCCCC3)CC[C@H]2C)n1
Summary of the method: as §1

[9] = compound: COC(=O)N[C@@H](C)CNc1nccc(-c2cn(C(C)C)nc2-c2cc(Cl)cc(NS(C)(=O)=O)c2F)n1 [encorafenib]
Summary of the method: as §1

[10] = compound: COC(=O)[C@H](CCSC)NC(=O)C1=C(C=C(C=C1)NC[C@H](CS)N)C2=CC=CC=C2
Summary of the method: as §1

Measured: log2 fold change

UGP2 (UniProt C9JWG0)
inactive: [1] 0.099

UBQLN3 (UniProt Q9H347)
inactive: [2] 0.028 | [3] -0.051 | [4] 0 | [5] -0.059 | [6] -0.047 | [7] 0.202 | [8] -0.036 | [9] -0.266 | [10] 0.021

VAV1 (UniProt P15498)
inactive: [3] -0.076 | [4] 0.101 | [5] 0.07 | [6] 0.051 | [10] -0.019

VASN (UniProt Q6EMK4)
inactive: [1] 0.051 | [5] -0.068 | [6] -0.153 | [10] -0.076

UQCC3 (UniProt Q6UW78)
inactive: [3] 0.284

ULBP1 (UniProt Q9BZM6)
inactive: [2] -0.027 | [1] -0.175 | [4] 0.016 | [5] -0.096 | [6] 0.064 | [8] 0.07 | [10] 0.048

UFSP1 (UniProt Q6NVU6)
inactive: [5] -0.127

UNC13A (UniProt Q9UPW8)
inactive: [1] -0.05 | [4] 0.024 | [5] -0.05

UTP18 (UniProt Q9Y5J1)
inactive: [1] -0.036 | [5] 0.173 | [7] 0.488 | [9] 0.196

USF3 (UniProt Q68DE3)
inactive: [1] 0.015 | [6] -0.074 | [7] -0.027 | [9] -0.063 | [10] 0.051

UHRF1 isoform 2 (UniProt Q96T88)
inactive: [4] -0.053 | [5] 0.006

ULK3 isoform 4 (UniProt Q6PHR2)
inactive: [1] -0.166 | [7] -0.053 | [9] 0.067

USP1 (UniProt O94782)
inactive: [1] -0.12 | [3] -0.228 | [4] 0.087 | [5] -0.033 | [6] -0.255 | [7] -0.018 | [9] 0.006 | [10] -0.116

USP16 (UniProt Q9Y5T5)
inactive: [2] -0.089 | [3] 0.143 | [4] 0.212 | [5] 0.026 | [6] 0.162 | [8] 0.055 | [10] -0.134

ULBP2 (UniProt Q9BZM5)
inactive: [1] -0.035 | [3] -0.043 | [4] -0.188 | [7] -0.035 | [9] 0.049

USP46 (UniProt P62068)
inactive: [1] -0.117 | [5] -0.22 | [6] 0.06 | [10] 0.125

Two neighbouring records from above, for reference:
ULBP2 (UniProt Q9BZM5)
inactive: [1] -0.035 | [3] -0.043 | [4] -0.188 | [7] -0.035 | [9] 0.049

USP46 (UniProt P62068)
inactive: [1] -0.117 | [5] -0.22 | [6] 0.06 | [10] 0.125

More records follow:

USP54 (UniProt Q70EL1)
inactive: [2] -0.074 | [4] -0.09 | [5] 0.059 | [6] -0.074 | [8] 0.132 | [10] -0.151

UPP1 (UniProt Q16831)
inactive: [4] 0.027

USP33 (UniProt Q8TEY7)
inactive: [2] -0.159 | [1] -0.16 | [4] 0.212 | [5] -0.049 | [6] 0.132 | [8] -0.051 | [10] -0.164

UBN2 (UniProt Q6ZU65)
inactive: [3] 0.254 | [6] 0.236 | [10] -0.108

URB2 (UniProt Q14146)
inactive: [3] -0.101 | [5] -0.18

USP27X (UniProt A6NNY8)
inactive: [2] -0.195 | [3] -0.005 | [4] -0.103 | [8] 0.279

VAMP3 (UniProt Q15836)
inactive: [3] 0.001 | [4] -0.111 | [5] 0.016

UBTF (UniProt P17480)
inactive: [1] -0.028 | [3] -0.044 | [5] -0.088

UNC5B (UniProt Q8IZJ1)
inactive: [2] 0.078 | [4] -0.028 | [6] -0.133 | [8] -0.072 | [10] 0.054

USB1 (UniProt Q9BQ65)
inactive: [3] 0.026 | [4] 0.308 | [5] 0.014 | [6] -0.283 | [10] -0.096

UTP20 (UniProt O75691)
inactive: [4] -0.028 | [5] -0.051

USF1 (UniProt P22415)
inactive: [1] -0.018 | [5] 0.106 | [6] 0.122 | [10] -0.191

UCHL5 isoform 3 (UniProt Q9Y5K5)
inactive: [1] -0.292 | [4] -0.035 | [5] 0.136 | [6] 0.03 | [7] -0.08 | [9] 0.241 | [10] -0.254

USP4 (UniProt Q13107)
inactive: [2] -0.139 | [8] 0.102

USP48 (UniProt Q86UV5)
inactive: [1] -0.123 | [5] -0.045 | [7] -0.102 | [9] 0.318

UBQLN1 isoform 2 (UniProt Q9UMX0)
inactive: [2] -0.285 | [5] -0.239 | [8] -0.049

UTP14C (UniProt Q5TAP6)
inactive: [1] -0.014 | [5] -0.181

USP12 (UniProt O75317)
inactive: [2] 0.195 | [3] -0.035 | [4] -0.056 | [6] -0.013 | [7] 0.069 | [8] -0.05 | [9] -0.047 | [10] 0.108

UTP23 (UniProt Q9BRU9)
inactive: [2] -0.03 | [3] 0.101 | [8] -0.033

UQCR11 (UniProt O14957)
inactive: [5] 0.033

VCPIP1 (UniProt Q96JH7)
inactive: [1] -0.529 | [5] 0.192 | [6] 0.053 | [10] -0.19

UPF3A (UniProt Q9H1J1)
inactive: [1] 0.067 | [5] -0.086 | [7] 0.067 | [9] -0.035

UMAD1 (UniProt C9J7I0)
inactive: [2] -0.056 | [3] -0.095 | [4] -0.055 | [5] -0.019 | [7] -0.004 | [8] -0.203 | [9] -0.033
